{"sequences": {"note": "Protein sequences, listed by entry. Tags and fused reporters are not part of them.", "UniProt Q9NQL2": "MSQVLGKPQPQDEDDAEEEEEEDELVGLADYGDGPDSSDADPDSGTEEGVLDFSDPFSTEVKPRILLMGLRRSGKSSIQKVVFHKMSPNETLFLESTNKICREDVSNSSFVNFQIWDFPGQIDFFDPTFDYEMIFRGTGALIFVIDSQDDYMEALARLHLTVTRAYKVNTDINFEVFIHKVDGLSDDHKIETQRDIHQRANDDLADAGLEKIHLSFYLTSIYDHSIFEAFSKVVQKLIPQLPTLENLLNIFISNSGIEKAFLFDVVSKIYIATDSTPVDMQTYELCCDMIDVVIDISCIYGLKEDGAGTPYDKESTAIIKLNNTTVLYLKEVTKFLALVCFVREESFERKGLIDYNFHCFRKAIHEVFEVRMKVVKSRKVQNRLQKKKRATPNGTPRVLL", "UniProt Q7L523": "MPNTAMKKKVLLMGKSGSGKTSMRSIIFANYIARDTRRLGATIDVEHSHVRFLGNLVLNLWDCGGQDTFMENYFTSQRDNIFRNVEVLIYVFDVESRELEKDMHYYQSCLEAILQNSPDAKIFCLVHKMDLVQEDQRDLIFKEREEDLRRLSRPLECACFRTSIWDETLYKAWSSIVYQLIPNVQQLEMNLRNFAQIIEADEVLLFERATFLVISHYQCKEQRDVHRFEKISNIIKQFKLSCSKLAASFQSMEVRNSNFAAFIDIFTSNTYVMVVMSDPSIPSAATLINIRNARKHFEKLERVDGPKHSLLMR"}, "source": "paper doi:10.1101/2021.03.11.434334", "biological_target": "RagD (Rag GTPase D), wild type (human) (UniProt Q9NQL2)", "assay": "co-IP", "note": "Results are given in words; binding and its absence hold for the method and conditions named. In cells and extracts the contact can be indirect. Some results given as binding are weak or reduced against the parent protein; the word gives no strength.", "data": [{"substance": "RagA (from UniProt Q7L523 1-313)", "values": [{"measurement": "binding", "result": "binds"}]}]}
